Results are given in words; binding and its absence hold for the method and conditions named. In cells and extracts the contact can be indirect. A yes stands for co-enrichment or nearness to the bait. Other partners may have been found.
B1: LIG3 (protein, UniProt P49916 43-1009)
chain: LLHGHPLFLRRKPVLSFQGSHLRSRATYLVFLPGLHVGLCSGPCEMAEQRFCVDYAKRGTAGCKKCKEKIVKGVCRIGKVVPNPFSESGGDMKEWYHIKCMFEKLERARATTKKIEDLTELEGWEELEDNEKEQITQHIADLSSKAAGTPKKKAVVQAKLTTTGQVTSPVKGASFVTSTNPRKFSGFSAKPNNSGEAPSSPTPKRSLSSSKCDPRHKDCLLREFRKLCAMVADNPSYNTKTQIIQDFLRKGSAGDGFHGDVYLTVKLLLPGVIKTVYNLNDKQIVKLFSRIFNCNPDDMARDLEQGDVSETIRVFFEQSKSFPPAAKSLLTIQEVDEFLLRLSKLTKEDEQQQALQDIASRCTANDLKCIIRLIKHDLKMNSGAKHVLDALDPNAYEAFKASRNLQDVVERVLHNAQEVEKEPGQRRALSVQASLMTPVQPMLAEACKSVEYAMKKCPNGMFSEIKYDGERVQVHKNGDHFSYFSRSLKPVLPHKVAHFKDYIPQAFPGGHSMILDSEVLLIDNKTGKPLPFGTLGVHKKAAFQDANVCLFVFDCIYFNDVSLMDRPLCERRKFLHDNMVEIPNRIMFSEMKRVTKALDLADMITRVIQEGLEGLVLKDVKGTYEPGKRHWLKVKKDYLNEGAMADTADLVVLGAFYGQGSKGGMMSIFLMGCYDPGSQKWCTVTKCAGGHDDATLARLQNELDMVKISKDPSKIPSWLKVNKIYYPDFIVPDPKKAAVWEITGAEFSKSEAHTADGISIRFPRCTRIRDDKDWKSATNLPQLKELYQLSKEKADFTVVAGDEGSSTTGGSSEENKGPSGSAVSRKAPSKPSASTKKAEGKLSNSNSKDGNMQTAKPSAMKVGEKLATKSSPVKVGEKRKAADETLCQTKVLLDIFTGVRLYLPPSTPDFSRLRRYFVAFDGDLVQEFDMTSATHVLGSRDKNPAAQQVSPEWIWACIRKRRLVAPC

Chains of the proteins cited; added tags and fusions are not shown.
UniProt Q9Y508: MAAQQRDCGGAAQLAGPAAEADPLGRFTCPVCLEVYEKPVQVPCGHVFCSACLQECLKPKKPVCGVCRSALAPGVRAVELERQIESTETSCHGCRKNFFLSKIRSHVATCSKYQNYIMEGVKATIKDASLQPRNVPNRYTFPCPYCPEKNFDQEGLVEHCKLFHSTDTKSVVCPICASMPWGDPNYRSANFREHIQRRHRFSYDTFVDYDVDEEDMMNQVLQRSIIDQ
UniProt Q9H0J9: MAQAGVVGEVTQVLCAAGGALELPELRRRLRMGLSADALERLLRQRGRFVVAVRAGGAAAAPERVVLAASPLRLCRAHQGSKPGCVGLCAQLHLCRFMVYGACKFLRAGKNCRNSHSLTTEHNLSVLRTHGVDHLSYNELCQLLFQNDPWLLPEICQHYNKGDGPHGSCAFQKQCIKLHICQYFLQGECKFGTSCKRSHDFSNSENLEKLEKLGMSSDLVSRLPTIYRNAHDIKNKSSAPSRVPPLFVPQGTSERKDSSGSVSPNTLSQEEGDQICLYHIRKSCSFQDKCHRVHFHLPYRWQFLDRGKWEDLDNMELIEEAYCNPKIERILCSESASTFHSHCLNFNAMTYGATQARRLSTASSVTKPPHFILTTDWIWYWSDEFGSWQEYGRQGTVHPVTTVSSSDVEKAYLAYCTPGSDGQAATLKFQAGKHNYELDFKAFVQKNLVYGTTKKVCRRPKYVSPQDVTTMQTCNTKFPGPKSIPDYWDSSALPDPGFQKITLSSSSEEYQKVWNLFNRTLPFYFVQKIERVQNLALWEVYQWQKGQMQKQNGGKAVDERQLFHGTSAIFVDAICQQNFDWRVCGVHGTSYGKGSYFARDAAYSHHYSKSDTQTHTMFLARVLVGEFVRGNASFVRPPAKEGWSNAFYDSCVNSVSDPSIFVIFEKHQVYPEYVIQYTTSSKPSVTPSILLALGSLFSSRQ
UniProt P18887: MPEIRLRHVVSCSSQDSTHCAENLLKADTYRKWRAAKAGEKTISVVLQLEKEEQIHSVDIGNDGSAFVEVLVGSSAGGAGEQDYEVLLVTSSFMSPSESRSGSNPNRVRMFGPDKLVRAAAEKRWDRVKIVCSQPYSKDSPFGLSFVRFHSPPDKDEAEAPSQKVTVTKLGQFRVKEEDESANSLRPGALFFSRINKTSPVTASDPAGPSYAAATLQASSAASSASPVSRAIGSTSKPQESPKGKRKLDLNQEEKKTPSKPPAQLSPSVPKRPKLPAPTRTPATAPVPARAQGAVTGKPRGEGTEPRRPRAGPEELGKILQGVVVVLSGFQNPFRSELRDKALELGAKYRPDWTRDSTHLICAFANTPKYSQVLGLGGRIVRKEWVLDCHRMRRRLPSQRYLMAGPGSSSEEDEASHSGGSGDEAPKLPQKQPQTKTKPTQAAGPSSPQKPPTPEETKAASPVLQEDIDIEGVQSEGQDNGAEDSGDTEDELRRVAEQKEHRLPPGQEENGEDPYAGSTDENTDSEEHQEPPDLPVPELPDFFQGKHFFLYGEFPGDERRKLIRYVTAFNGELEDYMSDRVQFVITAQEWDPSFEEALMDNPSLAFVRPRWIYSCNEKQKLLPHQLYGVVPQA

Target: GFP-tagged RNF114 wild type (UniProt Q9Y508)
Assay: affinity purification with mass spectrometry; GFP pulldown (GFP-TRAP magnetic particles) from RNF114-KO U2OS cells with inducible GFP–RNF114 WT or C176A, untreated or 1 mM H2O2 for 60 min; nondenaturing; on-bead trypsin digestion, DIA MS; four biological replicates

binding, binds:
ADP-ribosyltransferase PARP12 (from UniProt Q9H0J9 1-701), XRCC1 (from UniProt P18887 1-633), B1
